Results on one substance are retold here after patent US9090654 (dated 2015).

The nature of this series: general procedure: peptide synthesis; chloromethylated polystyrene resin; diisopropylcarbodiimide (DIC). To be noted: whole synthesis, scale 1.3 mmoles eq.

For “H-D-β-Nal-Cys(Acm)-Tyr-D-Trp-Lys-Val-Cys(Acm)-Thr-NH2”, the crude mass is reported as 870 mg. Under “220 nm”, the “crude HPLC purity” value stood at 96%.
